From article PMC3506659, “Snm1B Interacts with PSF2” (PLoS ONE, 2012)
These are yes or no findings as the source states them, for the method shown. In cells and extracts the contact can be indirect. Some results given as binding are weak or reduced against the parent protein; the word gives no strength. Where a sequence is shown, tags or fusion partners need not be part of it.

T1: Flag-Snm1B^1–494 (human) (UniProt Q9H816)
T1 sequence: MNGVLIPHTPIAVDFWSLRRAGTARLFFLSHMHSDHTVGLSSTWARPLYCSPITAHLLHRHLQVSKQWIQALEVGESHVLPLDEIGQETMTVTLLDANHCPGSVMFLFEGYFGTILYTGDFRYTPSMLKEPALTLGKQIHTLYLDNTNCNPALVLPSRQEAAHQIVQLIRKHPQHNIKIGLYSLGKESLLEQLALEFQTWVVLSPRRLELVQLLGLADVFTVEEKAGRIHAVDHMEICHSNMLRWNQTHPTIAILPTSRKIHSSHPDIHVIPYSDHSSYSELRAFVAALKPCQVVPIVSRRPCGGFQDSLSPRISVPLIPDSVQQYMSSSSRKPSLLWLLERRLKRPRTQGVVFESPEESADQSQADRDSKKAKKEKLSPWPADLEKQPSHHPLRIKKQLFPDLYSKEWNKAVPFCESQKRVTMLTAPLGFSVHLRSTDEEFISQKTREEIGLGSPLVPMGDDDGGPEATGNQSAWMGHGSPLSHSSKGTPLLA

T2: N-terminal Flag epitope-tagged human Snm1B (Flag-Snm1B) (human) (UniProt Q9H816)
T2 sequence: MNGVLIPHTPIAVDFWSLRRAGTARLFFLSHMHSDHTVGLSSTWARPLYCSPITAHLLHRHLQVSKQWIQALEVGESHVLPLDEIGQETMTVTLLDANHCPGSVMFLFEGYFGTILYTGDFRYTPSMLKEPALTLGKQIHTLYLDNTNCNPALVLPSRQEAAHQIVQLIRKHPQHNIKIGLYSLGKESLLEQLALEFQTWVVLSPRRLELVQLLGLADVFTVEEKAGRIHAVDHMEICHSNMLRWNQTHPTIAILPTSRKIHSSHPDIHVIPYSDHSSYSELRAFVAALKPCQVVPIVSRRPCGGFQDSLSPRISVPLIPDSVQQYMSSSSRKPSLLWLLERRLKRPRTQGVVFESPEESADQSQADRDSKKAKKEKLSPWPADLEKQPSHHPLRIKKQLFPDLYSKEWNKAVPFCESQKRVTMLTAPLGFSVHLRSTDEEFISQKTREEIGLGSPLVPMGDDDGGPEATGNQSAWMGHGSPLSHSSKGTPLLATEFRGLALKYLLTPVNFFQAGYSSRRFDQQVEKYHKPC

T3: GFP-Flag-Snm1B^79–532 (human) (UniProt Q9H816)
T3 sequence: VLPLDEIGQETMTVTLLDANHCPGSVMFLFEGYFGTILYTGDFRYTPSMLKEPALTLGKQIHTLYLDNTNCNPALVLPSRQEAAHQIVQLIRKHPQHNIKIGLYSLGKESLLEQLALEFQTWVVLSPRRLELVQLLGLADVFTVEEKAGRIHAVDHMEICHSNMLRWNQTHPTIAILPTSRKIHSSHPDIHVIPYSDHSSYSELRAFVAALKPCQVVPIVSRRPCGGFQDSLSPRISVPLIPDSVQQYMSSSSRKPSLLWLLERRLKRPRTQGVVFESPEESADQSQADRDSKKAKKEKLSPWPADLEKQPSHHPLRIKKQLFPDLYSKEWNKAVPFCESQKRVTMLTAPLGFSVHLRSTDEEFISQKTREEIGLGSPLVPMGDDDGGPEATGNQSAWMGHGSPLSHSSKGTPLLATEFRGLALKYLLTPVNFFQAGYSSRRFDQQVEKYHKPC

T4: GFP-Flag-Snm1B^413–532 (human) (UniProt Q9H816)
T4 sequence: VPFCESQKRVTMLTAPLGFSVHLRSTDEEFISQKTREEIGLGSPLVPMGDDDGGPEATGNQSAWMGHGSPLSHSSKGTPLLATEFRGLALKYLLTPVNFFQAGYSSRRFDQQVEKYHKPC

T5: Flag-Snm1B^Δ222–363 (human, UniProt Q9H816 1-221; Q9H816 364-532)
T5 construct: RGR is my translation read in frame from its first base; source: 293T, transiently transfected (pLPC), in lysate; not shown: Flag, N-terminal, kept
T5 chain: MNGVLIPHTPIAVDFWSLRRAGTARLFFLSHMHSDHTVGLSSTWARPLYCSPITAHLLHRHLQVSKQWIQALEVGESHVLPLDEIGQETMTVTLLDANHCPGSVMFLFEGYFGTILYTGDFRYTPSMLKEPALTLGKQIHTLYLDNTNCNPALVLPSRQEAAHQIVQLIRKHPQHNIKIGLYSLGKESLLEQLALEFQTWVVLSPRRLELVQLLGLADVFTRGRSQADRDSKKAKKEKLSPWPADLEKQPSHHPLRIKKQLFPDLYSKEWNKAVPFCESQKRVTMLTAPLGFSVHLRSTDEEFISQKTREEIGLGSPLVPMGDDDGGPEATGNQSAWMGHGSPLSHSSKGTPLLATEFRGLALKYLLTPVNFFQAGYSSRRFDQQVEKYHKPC

T6: N-terminal Myc epitope-tagged human PSF2 (Myc-PSF2) (human) (UniProt Q9Y248)
T6 sequence: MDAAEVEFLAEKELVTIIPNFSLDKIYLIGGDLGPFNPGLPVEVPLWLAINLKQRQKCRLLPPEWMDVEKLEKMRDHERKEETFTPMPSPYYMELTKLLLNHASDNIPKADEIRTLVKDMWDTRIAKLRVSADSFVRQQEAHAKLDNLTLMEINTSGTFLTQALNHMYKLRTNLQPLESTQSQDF


Legend:
Flag-Snm1B^1–494 (human) = molecular target: T1, Flag-Snm1B^1–494 (human); assay: co-IP; 293T transiently co-transfected, RIPA lysate, Flag-Snm1B immunoprecipitated with anti-Flag M2 affinity gel at 4°C overnight, immunoblot for Myc-PSF2 or Mus81; with or without co-expressed Myc-PSF2 or HA-Mus81
[1] = molecular target: T2, N-terminal Flag epitope-tagged human Snm1B (Flag-Snm1B) (human); assay: as above
[2] = molecular target: T3, GFP-Flag-Snm1B^79–532 (human); assay: co-IP; 293T transiently co-transfected, RIPA lysate, GFP-Flag-Snm1B fragments immunoprecipitated with anti-GFP antibody and GammaBind G Sepharose, immunoblot anti-Myc
[3] = molecular target: T4, GFP-Flag-Snm1B^413–532 (human); assay: as above
[4] = molecular target: T2, N-terminal Flag epitope-tagged human Snm1B (Flag-Snm1B) (human); assay: co-IP; competition: 293T co-transfected with Flag-Snm1B (WT or N2), Myc-PSF2 and/or Myc-TRF2 (WT or F120A); RIPA lysate, anti-Flag immunoprecipitation, immunoblot anti-Myc; Myc-PSF2:Flag-Snm1B ratio by ImageJ
Flag-Snm1B^Δ222–363 = molecular target: T5, Flag-Snm1B^Δ222–363; assay: co-IP; 293T transiently co-transfected, RIPA lysate, Flag-Snm1B immunoprecipitated with anti-Flag M2 affinity gel at 4°C overnight, immunoblot for Myc-PSF2 or Mus81; with or without co-expressed Myc-PSF2 or HA-Mus81
[5] = molecular target: T6, N-terminal Myc epitope-tagged human PSF2 (Myc-PSF2) (human); assay: co-IP; 293T transiently co-transfected with Myc-PSF2 and HA-Mus81, with or without Flag-Snm1B; RIPA lysate, Myc-PSF2 immunoprecipitated with anti-Myc antibody and GammaBind G Sepharose, immunoblot anti-Flag or anti-Mus81
[6] = molecular target: T6, N-terminal Myc epitope-tagged human PSF2 (Myc-PSF2) (human); assay: condition: only without ectopic HA-Mus81 (anti-Myc immunoprecipitation); co-IP; 293T transiently co-transfected with Flag-Snm1B and Myc-PSF2 without ectopic HA-Mus81; RIPA lysate, Myc-PSF2 immunoprecipitated with anti-Myc antibody, immunoblot anti-Flag

Row | binding (Flag-Snm1B^1–494 (human)) | binding [1] | binding [2] | binding [3] | binding [4] | binding (Flag-Snm1B^Δ222–363) | binding [5] | binding [6] | Binder
1 | binds | binds | binds | binds weakly | binds |  |  |  | N-terminal Myc epitope-tagged human PSF2 (Myc-PSF2) (natural protein, UniProt Q9Y248 1-185, looked up, PSF2, subunit of the GINS complex, human, full length; amplified from clone MGC-673 (ATCC); source: 293T, transiently transfected (pCMV-MYC), in lysate; not shown: Myc, N-terminal, kept) MDAAEVEFLAEKELVTIIPNFSLDKIYLIGGDLGPFNPGLPVEVPLWLAINLKQRQKCRLLPPEWMDVEKLEKMRDHERKEETFTPMPSPYYMELTKLLLNHASDNIPKADEIRTLVKDMWDTRIAKLRVSADSFVRQQEAHAKLDNLTLMEINTSGTFLTQALNHMYKLRTNLQPLESTQSQDF
2 | binds | binds |  |  |  | binds | binds |  | HA epitope-tagged Mus81 (HA-Mus81) (natural protein, UniProt Q96NY9 1-551, looked up, Mus81, subunit of the Mus81/Eme1 endonuclease; amplified from clone MGC:14953 (Imagenes); Detected with an anti-Mus81 antibody, which may also see the endogenous Mus81 of 293T cells; source: 293T, transiently transfected (pcDNA3), in lysate; not shown: HA, N-terminal, kept) MAAPVRLGRKRPLPACPNPLFVRWLTEWRDEATRSRRRTRFVFQKALRSLRRYPLPLRSGKEAKILQHFGDGLCRMLDERLQRHRTSGGDHAPDSPSGENSPAPQGRLAEVQDSSMPVPAQPKAGGSGSYWPARHSGARVILLVLYREHLNPNGHHFLTKEELLQRCAQKSPRVAPGSARPWPALRSLLHRNLVLRTHQPARYSLTPEGLELAQKLAESEGLSLLNVGIGPKEPPGEETAVPGAASAELASEAGVQQQPLELRPGEYRVLLCVDIGETRGGGHRPELLRELQRLHVTHTVRKLHVGDFVWVAQETNPRDPANPGELVLDHIVERKRLDDLCSSIIDGRFREQKFRLKRCGLERRVYLVEEHGSVHNLSLPESTLLQAVTNTQVIDGFFVKRTADIKESAAYLALLTRGLQRLYQGHTLRSRPWGTPGNPESGAMTSPNPLCSLLTFSDFNAGAIKNKAQSVREVFARQLMQVRGVSGEKAAALVDRYSTPASLLAAYDACATPKEQETLLSTIKCGRLQRNLGPALSRTLSQLYCSYGPLT
3 |  |  |  |  |  |  | binds | no binding | N-terminal Flag epitope-tagged human Snm1B (Flag-Snm1B) (protein, UniProt Q9H816 1-532) MNGVLIPHTPIAVDFWSLRRAGTARLFFLSHMHSDHTVGLSSTWARPLYCSPITAHLLHRHLQVSKQWIQALEVGESHVLPLDEIGQETMTVTLLDANHCPGSVMFLFEGYFGTILYTGDFRYTPSMLKEPALTLGKQIHTLYLDNTNCNPALVLPSRQEAAHQIVQLIRKHPQHNIKIGLYSLGKESLLEQLALEFQTWVVLSPRRLELVQLLGLADVFTVEEKAGRIHAVDHMEICHSNMLRWNQTHPTIAILPTSRKIHSSHPDIHVIPYSDHSSYSELRAFVAALKPCQVVPIVSRRPCGGFQDSLSPRISVPLIPDSVQQYMSSSSRKPSLLWLLERRLKRPRTQGVVFESPEESADQSQADRDSKKAKKEKLSPWPADLEKQPSHHPLRIKKQLFPDLYSKEWNKAVPFCESQKRVTMLTAPLGFSVHLRSTDEEFISQKTREEIGLGSPLVPMGDDDGGPEATGNQSAWMGHGSPLSHSSKGTPLLATEFRGLALKYLLTPVNFFQAGYSSRRFDQQVEKYHKPC
